Results are given in words; binding and its absence hold for the method and conditions named. Binding seen in cells or lysates may run through a third protein. Here binding means that the protein was enriched with, or labelled near, the bait; the list need not be complete.
Biological target: KhpB-3xFLAG (Deinococcus radiodurans) (UniProt Q9RXR1)
Test: affinity purification with mass spectrometry

By UniProt entry, the sequences of proteins in these tests, tags left out.
UniProt Q9RXK5: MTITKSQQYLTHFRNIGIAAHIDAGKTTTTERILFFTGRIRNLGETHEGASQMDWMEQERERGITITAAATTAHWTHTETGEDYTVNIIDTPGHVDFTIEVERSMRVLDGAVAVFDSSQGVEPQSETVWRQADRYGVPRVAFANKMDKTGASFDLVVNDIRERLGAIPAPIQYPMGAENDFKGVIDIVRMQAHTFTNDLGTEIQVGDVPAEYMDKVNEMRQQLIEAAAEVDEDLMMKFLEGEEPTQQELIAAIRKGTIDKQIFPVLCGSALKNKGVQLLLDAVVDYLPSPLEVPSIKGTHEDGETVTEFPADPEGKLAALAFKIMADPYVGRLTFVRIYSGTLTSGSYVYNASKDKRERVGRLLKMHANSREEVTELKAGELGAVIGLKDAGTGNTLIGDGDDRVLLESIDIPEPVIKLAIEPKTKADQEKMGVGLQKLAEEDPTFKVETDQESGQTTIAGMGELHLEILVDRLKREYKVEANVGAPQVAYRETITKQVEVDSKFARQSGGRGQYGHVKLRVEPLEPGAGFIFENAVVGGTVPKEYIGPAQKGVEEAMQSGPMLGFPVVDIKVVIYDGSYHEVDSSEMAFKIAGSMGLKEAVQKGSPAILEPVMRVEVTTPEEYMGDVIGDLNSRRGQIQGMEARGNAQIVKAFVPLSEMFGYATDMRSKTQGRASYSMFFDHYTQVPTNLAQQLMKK

Molecule	binding
elongation factor G (from UniProt Q9RXK5 1-698)	binds
Rsr (protein, UniProt Q9RUW8 1-531) MKNLLRAINPLNRPQTERLDERQVRNNAGGFVYTVSDESRLTRFLVLGVDGGTFYASAQKHTVQATDFVRELVQRDAALALRVTLDVVRGQRAPKADPALLVLALIAKTAPNAADRKAAWDALPEVARTGTMLLHFLAFADALGGWGRLTRRGVANVYETADVDKLALWAVKYKARDGWSQADALRKAHPKTDDAARNAVLKFMVDGVLPKVDSPALRVIEGHLKATEAQTDAAAAALMQEYRLPLEAVPTHVRGAEVYRAAMQTNGLTWLLRNLGNLGRVGVLTPNDSATVQAVIERLTDPAALKRGRIHPLDALKARLVYAQGQGVRGKGTWLPVPRVVDALEEAFTLAFGNVQPANTRHLLALDVSGSMTCGDVAGVPGLTPNMAAAAMSLIALRTEPDALTMGFAEQFRPLGITPRDTLESAMQKAQSMSFGGTDCAQPILWAAQERLDVDTFVVYTDNETWAGQVHPTVALDQYAQKMGRAPKLIVVGLTATEFSIADPQRRDMLDVVGFDAAAPNVMTAFARGEV	binds
